Data published in patent US20130225436A1.
No constants are given. Whether binding was seen depends on the method and setting. Some binding calls cover weakened binding; strength is not graded here.

The chains behind the UniProt entries cited, without tags or fusion partners. Residues count along the entry.
UniProt P46934, residues 929-1319: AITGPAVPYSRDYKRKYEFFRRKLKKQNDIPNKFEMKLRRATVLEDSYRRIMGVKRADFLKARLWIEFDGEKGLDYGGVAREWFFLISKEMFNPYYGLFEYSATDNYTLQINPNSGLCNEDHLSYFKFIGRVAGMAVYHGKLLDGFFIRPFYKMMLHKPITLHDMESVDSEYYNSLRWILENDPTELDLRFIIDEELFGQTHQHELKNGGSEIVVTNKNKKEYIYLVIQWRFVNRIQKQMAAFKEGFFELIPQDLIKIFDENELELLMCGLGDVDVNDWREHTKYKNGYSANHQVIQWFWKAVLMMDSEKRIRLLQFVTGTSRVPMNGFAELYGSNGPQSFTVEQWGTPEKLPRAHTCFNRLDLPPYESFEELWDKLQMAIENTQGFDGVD
UniProt Q96J02, residues 524-903: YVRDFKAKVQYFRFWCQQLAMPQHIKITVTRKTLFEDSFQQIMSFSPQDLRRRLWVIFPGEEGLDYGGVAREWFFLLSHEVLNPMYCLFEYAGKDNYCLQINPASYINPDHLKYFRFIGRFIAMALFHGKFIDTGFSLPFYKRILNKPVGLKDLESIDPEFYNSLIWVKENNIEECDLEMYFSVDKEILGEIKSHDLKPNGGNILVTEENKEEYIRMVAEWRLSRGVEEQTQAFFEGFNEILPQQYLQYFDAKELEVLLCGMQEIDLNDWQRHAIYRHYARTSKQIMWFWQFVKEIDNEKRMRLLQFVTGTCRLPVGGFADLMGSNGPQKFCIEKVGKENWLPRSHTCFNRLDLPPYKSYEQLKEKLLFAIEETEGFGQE

Experiments:
[1] = biological target: HECT-domain of Nedd4 (residues 510-900) (UniProt P46934); assay: phage selection and ELISA
[2] = biological target: ITCH HECT domain (residues 483-862) (UniProt Q96J02); assay: phage ELISA after 5 rounds of selection

binding [1] | binding [2] | Binder
binds |  | Nedd4-N4-D1 (designed binder) MQIFVNTLARTSISLEVEPSDTIENVKAKIQDKEGIPPDQQRLIFAGKQLEDGRTLSDYNIQKESTLHLVLRLPGTKV
binds |  | Nedd4-N4-D3 (designed binder) MKISVNTLTGKTITLEVEPSDTIENVKAKIQDKEGIPPDQQRLIFAGKQLEDGRTLSDYNIQKYSTLYLVKRLRRLKQ
binds |  | Nedd4-N4-C10 (designed binder) MQILVKTLTGKTITLEVEPSDTIENVKAKIQDKEGIPPDQQRLIFAGLKLEDGRTLSDYNIQKVSTLYLVKTFPGRRQ
binds |  | Nedd4-N4-D8 (designed binder) MQIFVRTLTGKTITLEVEPSDTIENVKAKIQDKEGIPPDQQRLIFAKQQLEDGRTLSDYNILKESTLGLVRRLRGLVS
binds |  | Nedd4-N4-D10 (designed binder) MQIFVRTLMRKSISLEVEPSDTIENVKAKIQDKEGIPPDQQKLIFAGKLLEDGRTLSDYNIQKESTLHLVKKLILLRE
 | binds | Ubv.ITCH.05 (designed binder) MQIFVKTLTGTDITLEVEPSDTIENVKAKIQDKEGIPPDQQILLFAGKQLEDGRTLSDYNIPGDSTLYLLMRFGVNKR
 | binds | Ubv.ITCH.04 (designed binder) MQIFVKTLTGLSITLEVEPSDTIENVKAKIQDKEGIPPDQQILIFGGKRLEDGRTLSDYNIQKKSTLYLLMRLRGVSR
binds |  | Nedd4-N4-C4 (designed binder) MYISVKTLTGESISLEVEPSDTIENVKAKIQDKEGIPPDQQKLFFAGKILEDGRTLSDYNILKWSTLHLVKRLRAVHM
binds |  | Nedd4-N4-C6 (designed binder) MPIVVKTLAGYTIHLEVEPSDTIENVKAKIQDKEGIPPDQQKLLFAGNRLEDGRTLSDYNIHNGSTLYLVKRLRGGGG
binds |  | Nedd4-N4-A11 (designed binder) MLILVKTLTGHSITLEVEPSDTIENVKAKIQDKEGIPPDQQRLFFAGKQLEDGRTLSDYNIHKFSTLHLVKRLRGRWK
binds |  | Nedd4-N4-A9 (designed binder) MRIFVTTLTGRAITLEVEPSDTIENVKAKIQDKEGIPPDQQRLIFTGKKLEDGRTLSDYNIPKESTLYLVKRLRGMEQ
binds |  | Nedd4-N4-B5 (designed binder) MQIVVKTLSRRTIGLEVEPSDTIENVKAKIQDKEGIPPDQQRLIFAGKKLEDGRTLSDYNIQKESTLHLALKLPGMGG
binds |  | Nedd4-N4-B6 (designed binder) MQIFVKTFTGKSITLEVEPSDTIENVKAKIQDKEGIPPDQQRLIFDRNKLEDGRTLSDYNIKKESTLGLVLRLRGGGG
binds |  | Nedd4-N4-C1 (designed binder) MQILVQTLTRKTITLEVEPSDTIENVKAKIQDKEGIPPDQQRLFFAGTQLEDGRTLSDYNIQKHSTLYLVLRLLGRRH
binds |  | Nedd4-N4-B1 (designed binder) MHIFVRTLTRKIITLEVEPSDTIENVKAKIQDKEGIPPDQQRLFFTGMTLEDGRTLSDYNIQKESTLHLVLRLRGGGG
binds |  | Nedd4-N4-B10 (designed binder) MRILVKTLTRKVITLEVEPSDTIENVKAKIQDKEGIPPDQQRLIFAGQRLEDGRTLSDYNIQKESTLHLVLRLRGGGG
binds |  | Nedd4-N4-D12 (designed binder) MQIYVKTLTRKRITLEVEPSDTIENVKAKIQDKEGIPPDQQKLFFNGKQLEDGRTLSDYNIQKESTLHLVLRLRGGGG
binds |  | Nedd4-N4-D5 (designed binder) MQIFVPTLVQKAINLEVEPSDTIENVKAKIQDKEGIPPDQQRLFFFRKPLEDGRTLSDYNIKKESTLHLLWRFSSRLM
